The list shows a part of the results. Most values lie at the level of the controls, where differences are scatter.
The targets below were run with CN[C@@H]1C[C@H]2O[C@@](C)([C@@H]1OC)n1c3ccccc3c3c4c(c5c6ccccc6n2c5c31)C(=O)NC4 [staurosporine] (assay: log2 fold change of tryptic peptide abundance, ligand vs vehicle (limited proteolysis) (log2 ratio); higher = more trypsin-susceptible (destabilized)). Details: ligand concentration: 20 uM; sample: mouse liver crude lysate; replicate design: treated separately.

Protein sequences, listed by entry. Tags and fused reporters are not part of them. Lines headed by an entry give the natural chain unless they say otherwise; changes in a name come on top.
UniProt P41245: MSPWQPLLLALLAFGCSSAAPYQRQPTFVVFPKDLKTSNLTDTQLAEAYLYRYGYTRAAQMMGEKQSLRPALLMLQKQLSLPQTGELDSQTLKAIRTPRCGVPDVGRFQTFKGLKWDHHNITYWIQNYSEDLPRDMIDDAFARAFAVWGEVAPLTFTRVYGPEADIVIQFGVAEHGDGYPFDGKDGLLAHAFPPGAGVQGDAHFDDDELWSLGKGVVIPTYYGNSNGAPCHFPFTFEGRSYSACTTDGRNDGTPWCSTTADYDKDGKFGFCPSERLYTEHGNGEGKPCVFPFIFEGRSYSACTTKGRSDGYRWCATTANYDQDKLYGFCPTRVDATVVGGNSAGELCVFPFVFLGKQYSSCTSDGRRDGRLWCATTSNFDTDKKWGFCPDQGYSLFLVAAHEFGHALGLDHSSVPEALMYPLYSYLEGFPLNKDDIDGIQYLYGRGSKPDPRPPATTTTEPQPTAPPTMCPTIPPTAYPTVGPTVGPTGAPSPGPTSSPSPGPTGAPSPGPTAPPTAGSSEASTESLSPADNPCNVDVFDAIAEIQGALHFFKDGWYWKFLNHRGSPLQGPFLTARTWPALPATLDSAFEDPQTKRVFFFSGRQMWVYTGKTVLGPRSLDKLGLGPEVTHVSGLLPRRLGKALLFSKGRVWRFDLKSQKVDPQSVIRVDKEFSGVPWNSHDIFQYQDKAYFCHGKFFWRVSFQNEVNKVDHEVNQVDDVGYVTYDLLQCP
UniProt P37889: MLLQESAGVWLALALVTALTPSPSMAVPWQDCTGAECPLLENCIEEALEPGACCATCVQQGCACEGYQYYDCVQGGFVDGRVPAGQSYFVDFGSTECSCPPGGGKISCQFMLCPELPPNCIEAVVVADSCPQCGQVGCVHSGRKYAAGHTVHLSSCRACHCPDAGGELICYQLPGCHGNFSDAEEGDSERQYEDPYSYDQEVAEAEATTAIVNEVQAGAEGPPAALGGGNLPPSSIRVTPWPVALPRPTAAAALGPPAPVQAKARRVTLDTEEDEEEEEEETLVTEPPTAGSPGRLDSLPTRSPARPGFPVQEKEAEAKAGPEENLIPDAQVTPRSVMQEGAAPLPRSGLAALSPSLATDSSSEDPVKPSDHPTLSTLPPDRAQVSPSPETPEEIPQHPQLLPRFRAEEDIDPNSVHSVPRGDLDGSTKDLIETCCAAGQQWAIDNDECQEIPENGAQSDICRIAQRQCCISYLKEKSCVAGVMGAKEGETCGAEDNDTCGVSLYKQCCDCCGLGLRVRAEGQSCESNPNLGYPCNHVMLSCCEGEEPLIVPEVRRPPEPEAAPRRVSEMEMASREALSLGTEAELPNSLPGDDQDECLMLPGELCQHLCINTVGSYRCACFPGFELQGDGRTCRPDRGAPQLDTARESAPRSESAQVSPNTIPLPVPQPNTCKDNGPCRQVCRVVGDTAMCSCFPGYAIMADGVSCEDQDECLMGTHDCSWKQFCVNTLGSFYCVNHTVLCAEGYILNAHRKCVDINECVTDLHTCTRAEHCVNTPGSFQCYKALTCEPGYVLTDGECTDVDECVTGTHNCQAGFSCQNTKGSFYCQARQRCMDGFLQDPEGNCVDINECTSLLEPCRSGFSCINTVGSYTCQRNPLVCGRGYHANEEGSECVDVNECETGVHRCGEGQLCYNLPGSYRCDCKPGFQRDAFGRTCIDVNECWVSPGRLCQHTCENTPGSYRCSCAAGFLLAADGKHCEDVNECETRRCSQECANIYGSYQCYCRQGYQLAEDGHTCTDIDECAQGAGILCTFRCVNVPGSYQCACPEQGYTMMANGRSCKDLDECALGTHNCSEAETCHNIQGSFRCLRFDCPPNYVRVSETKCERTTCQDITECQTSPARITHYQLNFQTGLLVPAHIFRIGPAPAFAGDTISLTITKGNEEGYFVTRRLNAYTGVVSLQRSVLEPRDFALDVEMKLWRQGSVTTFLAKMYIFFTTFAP
UniProt P45377: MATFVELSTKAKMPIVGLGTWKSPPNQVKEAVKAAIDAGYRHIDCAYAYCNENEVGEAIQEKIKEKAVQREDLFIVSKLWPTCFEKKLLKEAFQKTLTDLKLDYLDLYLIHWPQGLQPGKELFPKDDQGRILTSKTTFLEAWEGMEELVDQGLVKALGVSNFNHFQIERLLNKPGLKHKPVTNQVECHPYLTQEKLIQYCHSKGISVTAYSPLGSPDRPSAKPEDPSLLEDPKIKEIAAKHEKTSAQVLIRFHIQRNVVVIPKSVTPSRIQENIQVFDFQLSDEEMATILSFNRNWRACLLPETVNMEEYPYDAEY
UniProt P52760: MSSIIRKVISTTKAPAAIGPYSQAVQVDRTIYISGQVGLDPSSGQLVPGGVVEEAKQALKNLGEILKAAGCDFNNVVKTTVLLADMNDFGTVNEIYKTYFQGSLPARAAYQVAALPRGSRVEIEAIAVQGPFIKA
UniProt P53564: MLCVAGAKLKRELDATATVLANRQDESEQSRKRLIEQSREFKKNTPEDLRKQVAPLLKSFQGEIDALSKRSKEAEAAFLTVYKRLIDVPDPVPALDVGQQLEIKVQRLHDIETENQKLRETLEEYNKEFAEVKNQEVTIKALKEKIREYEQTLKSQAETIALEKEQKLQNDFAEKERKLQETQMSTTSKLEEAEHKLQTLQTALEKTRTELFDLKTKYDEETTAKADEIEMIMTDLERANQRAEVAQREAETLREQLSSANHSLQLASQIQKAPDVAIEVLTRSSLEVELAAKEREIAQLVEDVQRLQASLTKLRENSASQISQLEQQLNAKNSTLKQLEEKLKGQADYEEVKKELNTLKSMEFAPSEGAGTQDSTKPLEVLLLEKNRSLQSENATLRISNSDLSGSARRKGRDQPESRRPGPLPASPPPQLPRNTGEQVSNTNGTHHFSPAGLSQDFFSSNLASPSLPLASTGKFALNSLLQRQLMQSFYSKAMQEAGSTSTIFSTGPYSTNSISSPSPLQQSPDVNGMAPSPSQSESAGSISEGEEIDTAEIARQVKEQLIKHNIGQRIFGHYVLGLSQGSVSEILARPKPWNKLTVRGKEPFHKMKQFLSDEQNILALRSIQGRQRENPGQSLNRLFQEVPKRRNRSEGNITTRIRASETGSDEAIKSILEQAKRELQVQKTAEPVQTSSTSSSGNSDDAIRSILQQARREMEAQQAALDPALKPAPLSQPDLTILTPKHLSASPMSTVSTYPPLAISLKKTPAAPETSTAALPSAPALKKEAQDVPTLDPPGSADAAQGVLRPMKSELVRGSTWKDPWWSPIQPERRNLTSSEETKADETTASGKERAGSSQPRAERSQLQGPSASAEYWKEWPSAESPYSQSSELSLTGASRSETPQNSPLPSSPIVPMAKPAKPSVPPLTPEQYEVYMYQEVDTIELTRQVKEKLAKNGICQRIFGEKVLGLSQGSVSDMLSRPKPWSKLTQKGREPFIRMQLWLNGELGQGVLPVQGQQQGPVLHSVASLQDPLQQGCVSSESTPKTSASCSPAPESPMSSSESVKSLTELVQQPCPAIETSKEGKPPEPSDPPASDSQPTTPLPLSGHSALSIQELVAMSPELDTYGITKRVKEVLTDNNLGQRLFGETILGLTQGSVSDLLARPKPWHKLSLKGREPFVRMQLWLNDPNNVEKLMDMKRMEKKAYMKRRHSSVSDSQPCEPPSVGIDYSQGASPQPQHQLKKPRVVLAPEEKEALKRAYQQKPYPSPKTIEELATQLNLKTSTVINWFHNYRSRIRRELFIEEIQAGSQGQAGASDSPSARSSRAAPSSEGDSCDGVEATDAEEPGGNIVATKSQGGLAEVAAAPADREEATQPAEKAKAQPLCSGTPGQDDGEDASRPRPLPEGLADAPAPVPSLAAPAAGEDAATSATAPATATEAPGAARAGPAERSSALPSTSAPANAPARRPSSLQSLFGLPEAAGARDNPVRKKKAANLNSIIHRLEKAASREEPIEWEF
UniProt P43274, whole entry: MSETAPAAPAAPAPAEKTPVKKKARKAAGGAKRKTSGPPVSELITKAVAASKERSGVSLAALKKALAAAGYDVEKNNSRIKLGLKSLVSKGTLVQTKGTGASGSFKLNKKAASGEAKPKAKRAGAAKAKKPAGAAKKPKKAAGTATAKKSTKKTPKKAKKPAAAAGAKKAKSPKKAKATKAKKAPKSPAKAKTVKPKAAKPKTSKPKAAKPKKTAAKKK
UniProt P45878: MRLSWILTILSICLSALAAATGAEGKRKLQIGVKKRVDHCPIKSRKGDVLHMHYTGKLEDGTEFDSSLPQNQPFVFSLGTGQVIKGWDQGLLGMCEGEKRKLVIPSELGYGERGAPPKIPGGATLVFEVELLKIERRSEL
UniProt P49962: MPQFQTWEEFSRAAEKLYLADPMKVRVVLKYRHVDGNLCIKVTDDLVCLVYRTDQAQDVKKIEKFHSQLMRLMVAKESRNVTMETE
UniProt P47879: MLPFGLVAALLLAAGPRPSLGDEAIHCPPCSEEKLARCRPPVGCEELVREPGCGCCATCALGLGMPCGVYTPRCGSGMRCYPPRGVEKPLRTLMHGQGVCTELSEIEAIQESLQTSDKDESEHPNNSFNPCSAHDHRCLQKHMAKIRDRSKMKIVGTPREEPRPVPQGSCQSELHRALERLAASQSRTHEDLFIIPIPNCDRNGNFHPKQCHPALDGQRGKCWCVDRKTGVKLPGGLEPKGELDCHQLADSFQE
UniProt P35441: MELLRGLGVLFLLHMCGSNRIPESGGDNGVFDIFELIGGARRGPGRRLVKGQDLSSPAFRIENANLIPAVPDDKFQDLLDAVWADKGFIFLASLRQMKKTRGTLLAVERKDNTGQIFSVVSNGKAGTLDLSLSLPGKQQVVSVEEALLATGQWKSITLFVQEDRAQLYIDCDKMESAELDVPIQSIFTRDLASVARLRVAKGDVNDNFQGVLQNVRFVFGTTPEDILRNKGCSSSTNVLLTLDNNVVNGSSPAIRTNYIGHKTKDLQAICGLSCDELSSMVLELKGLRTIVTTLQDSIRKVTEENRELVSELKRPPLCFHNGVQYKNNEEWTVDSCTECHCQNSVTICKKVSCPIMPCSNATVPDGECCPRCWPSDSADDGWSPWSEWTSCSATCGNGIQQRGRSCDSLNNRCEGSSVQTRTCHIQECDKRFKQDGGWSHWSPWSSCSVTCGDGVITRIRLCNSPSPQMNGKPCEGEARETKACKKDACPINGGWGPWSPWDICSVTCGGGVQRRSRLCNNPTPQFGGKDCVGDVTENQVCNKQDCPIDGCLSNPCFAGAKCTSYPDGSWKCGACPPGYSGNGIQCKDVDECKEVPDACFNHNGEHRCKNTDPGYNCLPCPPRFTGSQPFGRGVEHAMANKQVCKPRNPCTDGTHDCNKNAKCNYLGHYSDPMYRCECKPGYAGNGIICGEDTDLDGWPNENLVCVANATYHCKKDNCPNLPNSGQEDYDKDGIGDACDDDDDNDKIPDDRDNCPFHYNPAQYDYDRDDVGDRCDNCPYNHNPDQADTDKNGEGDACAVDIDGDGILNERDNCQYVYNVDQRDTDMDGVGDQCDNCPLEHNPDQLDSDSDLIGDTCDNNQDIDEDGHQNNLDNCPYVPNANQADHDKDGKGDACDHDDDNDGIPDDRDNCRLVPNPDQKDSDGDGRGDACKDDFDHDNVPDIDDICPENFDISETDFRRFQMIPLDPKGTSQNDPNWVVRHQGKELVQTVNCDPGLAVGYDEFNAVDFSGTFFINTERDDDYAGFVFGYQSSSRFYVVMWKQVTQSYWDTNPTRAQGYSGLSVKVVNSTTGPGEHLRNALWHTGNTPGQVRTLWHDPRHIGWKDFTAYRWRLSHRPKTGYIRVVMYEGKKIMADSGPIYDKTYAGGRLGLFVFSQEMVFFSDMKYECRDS

Target	log2 fold change
UniProt P41245 (peptide sequence: AAQMMGEK, peptide start residue: 58)	-0.32
UniProt P40645 (peptide sequence: SSIPSPIGGSLGR, peptide start residue: 462)	-0.417
UniProt P37889 (peptide sequence: FRAEEDIDPNSVHSVPR, peptide start residue: 405)	0.269
UniProt P48410 (peptide sequence: DAGIALLSITHRPSLWK, peptide start residue: 649)	0.143
UniProt P52480 (peptide sequence: EAEAAIYHLQLFEELRR, peptide start residue: 384)	0.174
UniProt P43247 (peptide sequence: VGAGDSQLK, peptide start residue: 712)	-0.355
UniProt P51954 (peptide sequence: DGTVQLGDFGIAR, peptide start residue: 139)	-0.565
UniProt P45377 (peptide sequence: ELFPKDDQGR, peptide start residue: 121)	0.0952
UniProt P50544 (peptide sequence: TQFGDKIHNFGVIQEK, peptide start residue: 368)	-0.357
UniProt P38060 (peptide sequence: SIVPTPVKIR, peptide start residue: 49)	0.323
UniProt P52196 (peptide sequence: VDLSQPLIATCRK, peptide start residue: 238)	0.163
UniProt P35831 (peptide sequence: HDAGGIHTEASADSPPAFSDKK, peptide start residue: 721)	-0.144
UniProt P45376 (peptide sequence: VCALMSCAK, peptide start residue: 298)	0.409
UniProt P47739 (peptide sequence: HLTPVTLELGGK, peptide start residue: 200)	0.1
UniProt P47915 (peptide sequence: SQRYESLK, peptide start residue: 26)	-0.24
UniProt P53349 (peptide sequence: MMGHLNHPNIIR, peptide start residue: 1278)	0.508
UniProt P48379 (peptide sequence: LEPVNAASFGK, peptide start residue: 457)	0.301
UniProt P52760 (peptide sequence: TYFQGSLPAR, peptide start residue: 98)	-0.308
UniProt P39061 (peptide sequence: ASQGLELER, peptide start residue: 642)	-0.295
UniProt P49070 (peptide sequence: APECSSKDGAELR, peptide start residue: 118)	0.893
UniProt P53564 (peptide sequence: ASETGSDEAIK, peptide start residue: 660)	0.655
UniProt P43274 (peptide sequence: SETAPAAPAAPAPAEKTPVK, peptide start residue: 2)	-0.12
UniProt P45878 (peptide sequence: GAPPKIPGGATLVFEVELLK, peptide start residue: 114)	0.319
UniProt P45700 (peptide sequence: FDGGVEAIATR, peptide start residue: 528)	-0.692
UniProt P49962 (peptide sequence: FHSQLMR, peptide start residue: 65)	0.134
UniProt P47879 (peptide sequence: TGVKLPGGLEPK, peptide start residue: 229)	0.307
UniProt P41183 (peptide sequence: SDIHYSVPEGPKPAVPSAR, peptide start residue: 272)	-0.144
UniProt P35441 (peptide sequence: AGTLDLSLSLPGK, peptide start residue: 125)	0.243
UniProt P52431 (peptide sequence: ILVDRDPDGAVAHAK, peptide start residue: 849)	0.268
UniProt P47856 (peptide sequence: SEHKLSTDHIPILYR, peptide start residue: 213)	0.217

In another format: results already given
Target,log2 fold change
"UniProt P48410 (peptide sequence: DAGIALLSITHRPSLWK, peptide start residue: 649)",0.143
"UniProt P39061 (peptide sequence: ASQGLELER, peptide start residue: 642)",-0.295
